Measured values as given in publication PMC8347470.
These are yes or no findings as the source states them, for the method shown. In cells and extracts the contact can be indirect. Some results given as binding are weak or reduced against the parent protein; the word gives no strength.

Molecular target: Toll-like receptor-2 (human (endogenous in Caco-2)), O60603
Experiment: co-IP; total cell extracts of filter-grown Caco-2 monolayers, control or treated with BB1 (1 x 10^8 CFU/mL); 50 ug lysate with 10 ug TLR-2 antibody 2 h at 4 °C, Dynabeads 1 h at room temperature, washed 3 times with lysis buffer; Western blot
Details: remark: other sources report otherwise

B1: TLR-6, Q9Y2C9 32-796 (receptor)
chain: NEFAVDKSKRGLIHVPKDLPLKTKVLDMSQNYIAELQVSDMSFLSELTVLRLSHNRIQLLDLSVFKFNQDLEYLDLSHNQLQKISCHPIVSFRHLDLSFNDFKALPICKEFGNLSQLNFLGLSAMKLQKLDLLPIAHLHLSYILLDLRNYYIKENETESLQILNAKTLHLVFHPTSLFAIQVNISVNTLGCLQLTNIKLNDDNCQVFIKFLSELTRGSTLLNFTLNHIETTWKCLVRVFQFLWPKPVEYLNIYNLTIIESIREEDFTYSKTTLKALTIEHITNQVFLFSQTALYTVFSEMNIMMLTISDTPFIHMLCPHAPSTFKFLNFTQNVFTDSIFEKCSTLVKLETLILQKNGLKDLFKVGLMTKDMPSLEILDVSWNSLESGRHKENCTWVESIVVLNLSSNMLTDSVFRCLPPRIKVLDLHSNKIKSVPKQVVKLEALQELNVAFNSLTDLPGCGSFSSLSVLIIDHNSVSHPSADFFQSCQKMRSIKAGDNPFQCTCELREFVKNIDQVSSEVLEGWPDSYKCDYPESYRGSPLKDFHMSELSCNITLLIVTIGATMLVLAVTVTSLCIYLDLPWYLRMVCQWTQTRRRARNIPLEELQRNLQFHAFISYSEHDSAWVKSELVPYLEKEDIQICLHERNFVPGKSIVENIINCIEKSYKSIFVLSPNFVQSEWCHYELYFAHHNLFHEGSNNLILILLEPIPQNSIPNKYHKLKALMTQRTYLQWPKEKSKRGLFWANIRAAFNMKLTLVTENNDVKS
binding: binds
